No constants are given. Whether binding was seen depends on the method and setting. For some assays here: A result given as binding can be weak or reduced; the word gives no strength. For some assays here: Binding seen in cells or lysates may run through a third protein. For some assays here: Tags and fused reporters may be left off the sequences shown. Values belong to the molecule of their own block, whether it stands above or below them.
What was measured:
[1] = target: T1, EXO70B1-pGBKT7 (Arabidopsis thaliana) (UniProt Q9FGH9); test: two-hybrid; … GAL4 Two-Hybrid System 3; EXO70B1-pGBKT7 as bait, preys in pGADT7; S. cerevisiae AH109; growth on SD/-Ade/-His/-Leu/-Trp at 28°C
T1 sequence: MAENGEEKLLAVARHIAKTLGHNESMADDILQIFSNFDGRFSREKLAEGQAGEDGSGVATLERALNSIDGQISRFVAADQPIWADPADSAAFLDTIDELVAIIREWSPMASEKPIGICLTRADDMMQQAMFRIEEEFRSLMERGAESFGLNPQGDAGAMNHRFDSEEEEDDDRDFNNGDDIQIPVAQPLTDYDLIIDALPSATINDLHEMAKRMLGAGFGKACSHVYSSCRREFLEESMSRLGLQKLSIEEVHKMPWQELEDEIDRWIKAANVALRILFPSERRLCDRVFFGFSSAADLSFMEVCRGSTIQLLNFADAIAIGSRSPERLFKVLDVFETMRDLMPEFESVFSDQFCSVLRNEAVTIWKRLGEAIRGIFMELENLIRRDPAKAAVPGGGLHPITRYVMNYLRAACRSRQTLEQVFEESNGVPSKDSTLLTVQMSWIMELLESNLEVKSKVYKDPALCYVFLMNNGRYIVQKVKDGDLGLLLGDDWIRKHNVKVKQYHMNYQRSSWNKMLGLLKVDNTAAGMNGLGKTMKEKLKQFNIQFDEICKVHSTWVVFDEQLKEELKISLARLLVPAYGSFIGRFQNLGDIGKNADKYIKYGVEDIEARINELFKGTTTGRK

Chains of the proteins cited; added tags and fusions are not shown. Lines headed by an entry give the natural chain unless they say otherwise; changes in a name come on top.
UniProt Q4PT31: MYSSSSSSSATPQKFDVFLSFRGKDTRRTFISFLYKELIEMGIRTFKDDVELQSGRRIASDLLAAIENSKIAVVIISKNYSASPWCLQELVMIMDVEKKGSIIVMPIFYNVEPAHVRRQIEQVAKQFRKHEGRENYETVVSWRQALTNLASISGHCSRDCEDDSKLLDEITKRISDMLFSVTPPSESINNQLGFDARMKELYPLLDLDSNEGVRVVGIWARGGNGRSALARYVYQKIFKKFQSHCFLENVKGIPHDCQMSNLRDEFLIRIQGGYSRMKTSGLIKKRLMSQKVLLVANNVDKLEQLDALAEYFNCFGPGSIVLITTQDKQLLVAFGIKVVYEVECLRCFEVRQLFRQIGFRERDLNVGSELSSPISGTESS

[2] = target: TN2-YFP^N (Arabidopsis thaliana); test: split reporter; BiFC with YFP^N and YFP^C fusions co-infiltrated by Agrobacterium GV3101 into N. benthamiana leaves; YFP fluorescence by confocal microscopy after 48 hr
[3] = target: pEG202:TN2 (Arabidopsis thaliana) (UniProt Q4PT31); test: two-hybrid; LexA system; Gateway-modified pEG202 (baits, EGY48) and pJG4-5 (prey, RFY206 with LacZ reporter pSH18-34); mated diploids spotted on SD-HUW with X-gal
[4] = target: TN2-Myc (Arabidopsis thaliana); test: co-IP; transient co-expression in N. benthamiana leaves; total protein in NB1 buffer; immunoprecipitation with anti-Myc or anti-HA antibody and protein G agarose at 4 °C; washed 4 times with PBS; immunoblot

binding [1]: no binding
Molecule: PEN1Δ: PEN1 without transmembrane domain (Arabidopsis thaliana) (domain or fragment)

binding [2]: no binding
B1: SNAP33-YFP^C (protein, UniProt Q9S7P9 1-300)
chain: MFGLRKSPANLPKHNSVDLKSSKPNPFDSDDESDNKHTLNPSKRTTSEPSLADMTNPFGGERVQKGDSSSSKQSLFSNSKYQYKNNFRDSGGIENQSVQELEGYAVYKAEETTKSVQGCLKVAEDIRSDATRTLVMLHDQGEQITRTHHKAVEIDHDLSRGEKLLGSLGGMFSKTWKPKKTRPINGPVVTRDDSPTRRVNHLEKREKLGLNSAPRGQSRTREPLPESADAYQRVEMEKAKQDDGLSDLSDILGELKNMAVDMGSEIEKQNKGLDHLHDDVDELNFRVQQSNQRGRRLLGK

binding [3]: binds
B2: pJG4-5:EXO70B1 (protein, UniProt Q9FGH9 1-624)
chain: T1 sequence

binding [4]: binds
B3: EXO70B1-FLAG (protein, UniProt Q9FGH9 1-624)
chain: T1 sequence

binding [2]: binds
B4: EXO70B1-YFP^C (protein, UniProt Q9FGH9 1-624)
chain: T1 sequence
